Some of these results come from one statement about several compounds together. At least one structure is not confirmed: it was looked up by name or label, or the drawing left a doubt.
Tested on: any organism tested (Pseudomonas aeruginosa, Staphylococcus aureus, Candida albicans, Aspergillus niger)
Assay: Synergy test of other biocides paired with surfactants, any organism tested
Type: cell-based
Conditions: paired with Surf. D; synergistic only at 1:0.05 or worse except for one data point

Compound | ratio of surfactant to biocide where synergy was observed
CCCCNC(=O)OCC#CI [IPBC] | ≥ 1:0.05
Cn1sc2ccccc2c1=O [MBIT] | ≥ 1:0.05
